Laboratory results as given in patent US20260027152A1.
No constants are given. Whether binding was seen depends on the method and setting. Some entries that bind do so weakly or less than the wild type.

Sequences of proteins named here, by UniProt entry; tags and fusion partners are left off. Residues count along the entry.
UniProt Q5VWK5, residues 24-353: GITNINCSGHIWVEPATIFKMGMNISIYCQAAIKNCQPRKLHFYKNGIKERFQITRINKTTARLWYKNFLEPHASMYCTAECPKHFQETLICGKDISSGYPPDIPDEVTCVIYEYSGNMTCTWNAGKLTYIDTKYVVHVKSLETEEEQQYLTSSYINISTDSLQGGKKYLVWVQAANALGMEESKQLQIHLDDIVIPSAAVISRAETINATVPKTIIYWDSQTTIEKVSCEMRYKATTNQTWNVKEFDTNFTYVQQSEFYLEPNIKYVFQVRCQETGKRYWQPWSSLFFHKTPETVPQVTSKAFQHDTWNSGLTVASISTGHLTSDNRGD

Experiments:
[1] = target: human IL23Ra (coated on beads) (human) (UniProt Q5VWK5); experiment: no assay named in the sentence
[2] = target: T1, mouse IL23Ra (coated on beads) (mouse) (UniProt Q8K4B4); experiment: no assay named in the sentence
T1 sequence (looked up): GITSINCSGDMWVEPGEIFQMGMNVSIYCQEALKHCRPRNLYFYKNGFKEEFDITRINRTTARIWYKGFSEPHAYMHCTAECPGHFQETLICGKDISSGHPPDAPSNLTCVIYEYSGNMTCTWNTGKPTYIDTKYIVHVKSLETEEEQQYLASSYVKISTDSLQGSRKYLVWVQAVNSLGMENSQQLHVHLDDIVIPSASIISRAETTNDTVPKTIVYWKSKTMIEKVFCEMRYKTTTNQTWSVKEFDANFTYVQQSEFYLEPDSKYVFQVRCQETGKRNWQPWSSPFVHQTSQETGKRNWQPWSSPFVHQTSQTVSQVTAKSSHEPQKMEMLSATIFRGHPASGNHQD

[3] = target: human IL23Ra (coated on beads) (human) (UniProt Q5VWK5); experiment: flow cytometry; biotinylated scFv on IL23Ra-coated beads
[4] = target: T1, mouse IL23Ra (coated on beads) (mouse); experiment: as above
[5] = target: human IL23Ra (coated on beads) (human) (UniProt Q5VWK5); experiment: flow cytometry; biotinylated scFv on IL23Ra-coated beads (FIG. 14)
[6] = target: T1, mouse IL23Ra (coated on beads) (mouse); experiment: as above
[7] = target: human IL23Ra (coated on beads) (human) (UniProt Q5VWK5); experiment: flow cytometry: biotinylated scFv on IL23Ra-coated beads, detected with APC-labelled streptavidin, median fluorescence against conc. scFv [nM]

- binding [1]: binds
- binding [2]: binds
- binding [3]: binds
- binding [4]: binds
- binding [5]: binds
- binding [6]: binds
- binding [7]: binds
B1: anti-IL-23R scFv IL23RLamS4-G3 (scFv)
scFv: QSVLTQPPSVSGAPGQRVTISCTGSSSNIGAGYDVHWYQQLPGTAPKLLIYGNNNRPSGVPDRFSGSKSGTSASLAITGLQAEDEADYYCQSYDTGLSAWVFGGGTKLTVLGGGGSGGGGSGGGGSQLQLQESGPGLVKPSETLSLTCTVSGGSITSSNYYWGWIRQPPGKGLEWIGSIYYSGNTYYNPSLKSRVTISVDTSKNQFSLKLSSVTAADTAVYYCAREWSPYESEGFDYWGQGTLVTVSS
modifications: biotinylated (sites not given)
